Measurements: article PMC2975661
These are yes or no findings as the source states them, for the method shown. In cells and extracts the contact can be indirect. Some binding calls cover weakened binding; strength is not graded here.

Amino acid sequences for entries named in this document (tags omitted). A change or cut given only in a name is not applied to a line headed by its entry. Chains listed by the source or under a name are the forms on record and can include a tag or linker. Residues count along the entry.
UniProt O15945: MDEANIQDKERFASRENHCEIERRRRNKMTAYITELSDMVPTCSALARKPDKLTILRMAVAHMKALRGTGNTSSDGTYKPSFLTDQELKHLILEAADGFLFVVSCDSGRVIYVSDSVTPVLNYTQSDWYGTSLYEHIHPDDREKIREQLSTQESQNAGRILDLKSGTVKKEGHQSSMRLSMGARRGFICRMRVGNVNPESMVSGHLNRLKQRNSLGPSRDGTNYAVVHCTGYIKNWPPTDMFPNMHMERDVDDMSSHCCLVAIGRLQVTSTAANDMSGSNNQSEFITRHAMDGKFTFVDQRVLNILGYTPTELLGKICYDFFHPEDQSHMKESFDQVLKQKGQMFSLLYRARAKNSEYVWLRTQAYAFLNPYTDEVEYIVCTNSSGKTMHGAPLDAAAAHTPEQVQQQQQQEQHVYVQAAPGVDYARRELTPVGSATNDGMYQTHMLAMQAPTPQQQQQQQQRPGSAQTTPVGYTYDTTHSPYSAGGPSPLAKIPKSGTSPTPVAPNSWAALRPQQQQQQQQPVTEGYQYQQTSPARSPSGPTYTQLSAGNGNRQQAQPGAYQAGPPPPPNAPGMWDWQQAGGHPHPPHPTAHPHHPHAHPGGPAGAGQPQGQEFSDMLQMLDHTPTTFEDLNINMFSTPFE
UniProt P53762: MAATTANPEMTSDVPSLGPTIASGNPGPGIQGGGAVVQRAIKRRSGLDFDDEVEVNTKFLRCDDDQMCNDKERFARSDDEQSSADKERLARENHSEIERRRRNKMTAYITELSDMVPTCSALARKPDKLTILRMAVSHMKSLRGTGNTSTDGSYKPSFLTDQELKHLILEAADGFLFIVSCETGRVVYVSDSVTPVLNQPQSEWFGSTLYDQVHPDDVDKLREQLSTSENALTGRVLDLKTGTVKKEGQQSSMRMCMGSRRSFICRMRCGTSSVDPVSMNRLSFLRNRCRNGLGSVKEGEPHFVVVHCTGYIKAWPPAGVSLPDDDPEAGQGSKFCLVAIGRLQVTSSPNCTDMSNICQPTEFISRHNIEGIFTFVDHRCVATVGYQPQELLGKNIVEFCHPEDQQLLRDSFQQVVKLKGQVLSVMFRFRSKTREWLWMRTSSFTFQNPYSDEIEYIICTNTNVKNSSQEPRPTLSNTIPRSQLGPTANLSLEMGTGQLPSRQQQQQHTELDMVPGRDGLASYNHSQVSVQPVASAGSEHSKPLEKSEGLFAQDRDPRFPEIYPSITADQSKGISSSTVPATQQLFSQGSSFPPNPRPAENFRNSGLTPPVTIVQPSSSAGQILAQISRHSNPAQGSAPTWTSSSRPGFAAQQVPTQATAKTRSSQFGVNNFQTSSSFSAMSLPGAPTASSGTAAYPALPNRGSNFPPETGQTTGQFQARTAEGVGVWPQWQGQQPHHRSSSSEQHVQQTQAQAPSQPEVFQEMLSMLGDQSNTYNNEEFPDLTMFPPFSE
UniProt P30561: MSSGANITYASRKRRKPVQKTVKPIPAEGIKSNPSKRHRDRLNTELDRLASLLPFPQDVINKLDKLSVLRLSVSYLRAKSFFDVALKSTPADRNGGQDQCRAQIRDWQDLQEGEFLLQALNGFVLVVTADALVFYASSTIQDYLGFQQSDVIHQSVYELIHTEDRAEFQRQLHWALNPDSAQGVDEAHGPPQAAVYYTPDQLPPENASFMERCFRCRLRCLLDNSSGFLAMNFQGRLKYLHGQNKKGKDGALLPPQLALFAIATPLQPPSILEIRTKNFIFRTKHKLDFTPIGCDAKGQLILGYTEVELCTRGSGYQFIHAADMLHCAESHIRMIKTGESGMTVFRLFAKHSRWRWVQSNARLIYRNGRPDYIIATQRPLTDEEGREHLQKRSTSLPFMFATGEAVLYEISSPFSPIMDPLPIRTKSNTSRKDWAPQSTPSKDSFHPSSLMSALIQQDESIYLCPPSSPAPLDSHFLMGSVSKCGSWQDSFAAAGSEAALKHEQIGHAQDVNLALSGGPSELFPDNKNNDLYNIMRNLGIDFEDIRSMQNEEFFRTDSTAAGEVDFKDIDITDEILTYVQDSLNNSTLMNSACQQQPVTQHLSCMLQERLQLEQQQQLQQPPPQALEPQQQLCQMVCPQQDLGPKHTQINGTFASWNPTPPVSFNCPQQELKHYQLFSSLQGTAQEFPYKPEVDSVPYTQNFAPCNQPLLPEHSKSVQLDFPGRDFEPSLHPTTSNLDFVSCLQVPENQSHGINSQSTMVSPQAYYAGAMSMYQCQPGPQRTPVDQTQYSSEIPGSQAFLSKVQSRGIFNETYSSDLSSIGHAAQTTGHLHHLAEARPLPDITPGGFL
Aryl hydrocarbon receptor (mouse Ahr) tagged with GFP: residues 10-848 of P30561

What was measured:
[1] = target: Tango (Tgo), in vitro translated (Drosophila) (UniProt O15945); assay: co-IP; in vitro: proteins expressed in rabbit reticulocyte lysates, 35S-labelled as required; HEPES 20 mM pH 7.9, NaCl 50 mM, 1% Np40; anti-Tgo or anti-Arnt on Protein-G Sepharose; without or with dioxin in binding reaction and washes; 35S detected with a Typhoon TRIO scanner
[2] = target: Aryl hydrocarbon receptor nuclear translocator (Arnt), in vitro translated (UniProt P53762); assay: as above
[3] = target: Aryl hydrocarbon receptor (mouse Ahr) tagged with GFP (mouse) (UniProt P30561); assay: co-IP; in vivo: lysates of heat-shocked larvae (2 hours at 37°C); mouse anti-GFP on Protein-G Sepharose precipitates the GFP fusion; Tgo detected by Western blot with anti-Tgo

Q: How did the binding [1] turn out when “Aryl hydrocarbon receptor (Ahr), 35S-labelled, in vitro translated (from UniProt P30561 1-848)” was run?
A: binds

Q: What about the binding [2] of the same substance?
A: binds

Q: Which binding [3] does the source give for “Tango (Tgo), the fly homologue of Arnt, endogenous (from UniProt O15945 1-642)” here?
A: binds
